The record followed here is paper PMC3762724.

The labels stand for the following.
T1: Myc-hMSH4 (human) (UniProt O15457)
T1 sequence: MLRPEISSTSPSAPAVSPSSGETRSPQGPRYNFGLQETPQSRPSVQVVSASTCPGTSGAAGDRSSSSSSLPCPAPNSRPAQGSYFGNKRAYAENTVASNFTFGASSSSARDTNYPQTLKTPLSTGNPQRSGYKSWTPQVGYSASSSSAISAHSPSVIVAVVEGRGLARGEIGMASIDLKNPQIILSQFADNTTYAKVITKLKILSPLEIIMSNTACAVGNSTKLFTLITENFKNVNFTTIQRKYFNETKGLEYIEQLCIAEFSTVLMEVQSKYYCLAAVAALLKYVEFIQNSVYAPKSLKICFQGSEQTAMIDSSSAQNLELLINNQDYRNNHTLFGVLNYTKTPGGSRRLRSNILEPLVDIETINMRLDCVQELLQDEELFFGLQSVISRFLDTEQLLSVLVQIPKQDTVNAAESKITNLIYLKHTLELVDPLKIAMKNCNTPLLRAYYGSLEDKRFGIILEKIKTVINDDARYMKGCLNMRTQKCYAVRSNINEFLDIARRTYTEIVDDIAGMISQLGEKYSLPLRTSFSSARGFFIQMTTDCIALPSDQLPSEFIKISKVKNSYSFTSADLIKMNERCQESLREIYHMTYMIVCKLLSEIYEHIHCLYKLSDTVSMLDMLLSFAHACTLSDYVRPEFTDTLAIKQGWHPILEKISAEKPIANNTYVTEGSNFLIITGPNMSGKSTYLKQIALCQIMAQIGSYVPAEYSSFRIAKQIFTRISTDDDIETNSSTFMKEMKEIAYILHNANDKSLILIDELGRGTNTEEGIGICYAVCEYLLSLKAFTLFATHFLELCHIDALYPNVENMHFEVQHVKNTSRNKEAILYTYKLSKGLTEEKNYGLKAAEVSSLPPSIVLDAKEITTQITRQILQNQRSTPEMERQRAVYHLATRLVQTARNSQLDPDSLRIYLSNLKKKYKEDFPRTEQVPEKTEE

B1: f-hMSH5 (wild-type hMSH5) (protein, UniProt O43196 1-834)
chain: MASLGANPRRTPQGPRPGAASSGFPSPAPVPGPREAEEEEVEEEEELAEIHLCVLWNSGYLGIAYYDTSDSTIHFMPDAPDHESLKLLQRVLDEINPQSVVTSAKQDENMTRFLGKLASQEHREPKRPEIIFLPSVDFGLEISKQRLLSGNYSFIPDAMTATEKILFLSSIIPFDCLLTVRALGGLLKFLGRRRIGVELEDYNVSVPILGFKKFMLTHLVNIDQDTYSVLQIFKSESHPSVYKVASGLKEGLSLFGILNRCHCKWGEKLLRLWFTRPTHDLGELSSRLDVIQFFLLPQNLDMAQMLHRLLGHIKNVPLILKRMKLSHTKVSDWQVLYKTVYSALGLRDACRSLPQSIQLFRDIAQEFSDDLHHIASLIGKVVDFEGSLAENRFTVLPNIDPEIDEKKRRLMGLPSFLTEVARKELENLDSRIPSCSVIYIPLIGFLLSIPRLPSMVEASDFEINGLDFMFLSEEKLHYRSARTKELDALLGDLHCEIRDQETLLMYQLQCQVLARAAVLTRVLDLASRLDVLLALASAARDYGYSRPRYSPQVLGVRIQNGRHPLMELCARTFVPNSTECGGDKGRVKVITGPNSSGKSIYLKQVGLITFMALVGSFVPAEEAEIGAVDAIFTRIHSCESISLGLSTFMIDLNQVAKAVNNATAQSLVLIDEFGKGTNTVDGLALLAAVLRHWLARGPTCPHIFVATNFLSLVQLQLLPQGPLVQYLTMETCEDGNDLVFFYQVCEGVAKASHASHTAAQAGLPDKLVARGKEVSDLIRSGKPIKPVKDLLKKNQMENCQTLVDKFMKLDLEDPNLDLNVFMSQEVLPAATSIL
B2: f-hMSH5^L377F (protein, UniProt O43196 1-834)
chain: B1 chain with L377F
B3: f-hMSH5^P786S (protein, UniProt O43196 1-834)
chain: B1 chain with P786S
B4: f-hMSH5^R351G (protein, UniProt O43196 1-834)
chain: B1 chain with R351G
B5: f-hMSH5^L85F (protein, UniProt O43196 1-834)
chain: B1 chain with L85F
B6: f-hMSH5^V206F (protein, UniProt O43196 1-834)
chain: B1 chain with V206F
B7: f-hMSH5^Y202C (protein, UniProt O43196 1-834)
chain: B1 chain with Y202C

Positions count from the first letter of the chain named. Numbers in names are those of the source. Results are given in words; binding and its absence hold for the method and conditions named. In cells and extracts the contact can be indirect. Some binding calls cover weakened binding; strength is not graded here. Where a sequence is shown, tags or fusion partners need not be part of it.

The target of this experiment is T1, Myc-hMSH4 (human). Briefly: co-IP; lysates of 293T stable lines expressing hMSH5 or a variant, transiently transfected with Myc-hMSH4, collected 40 hours after transfection; precipitated with mouse α-Myc antibody at 4 °C for 2 hours, Protein A/rG agarose beads; blotted with α-hMSH5 and α-hMSH4.
Turning to B1, the binding entry was “binds”.

In the case of B2, the binding result is “binds”.

On to B3, for which the binding result is listed as “binds”.

As for B4, the binding result was “binds”.

Turning to B5, the binding result is listed as “binds”.

For B6, the binding result is reported as “binds”.

As for B7, the binding entry is on record as “binds”.
